Results: publication PMC10576855
Results are given in words; binding and its absence hold for the method and conditions named. Some binding calls cover weakened binding; strength is not graded here.

Target: T1, CD24 on 293T-CD24 cells (human), P25063
T1 chain: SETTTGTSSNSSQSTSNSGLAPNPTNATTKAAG
Assay: flow cytometry on cells; 293T-CD24 cells incubated with diluted IMM47 (from 5 μg/ml, three-fold dilutions) at 4 °C for 45 min, then PE-labeled human Siglec-10 at 4 °C for 45 min; PBS; only the binder purified
Settings: remark: other sources report otherwise

B1: PE-labeled human Siglec-10, Q96LC7 17-550 (receptor)
chain: MDGRFWIRVQESVMVPEGLCISVPCSFSYPRQDWTGSTPAYGYWFKAVTETTKGAPVATNHQSREVEMSTRGRFQLTGDPAKGNCSLVIRDAQMQDESQYFFRVERGSYVRYNFMNDGFFLKVTALTQKPDVYIPETLEPGQPVTVICVFNWAFEECPPPSFSWTGAALSSQGTKPTTSHFSVLSFTPRPQDHNTDLTCHVDFSRKGVSAQRTVRLRVAYAPRDLVISISRDNTPALEPQPQGNVPYLEAQKGQFLRLLCAADSQPPATLSWVLQNRVLSSSHPWGPRPLGLELPGVKAGDSGRYTCRAENRLGSQQRALDLSVQYPPENLRVMVSQANRTVLENLGNGTSLPVLEGQSLCLVCVTHSSPPARLSWTQRGQVLSPSQPSDPGVLELPRVQVEHEGEFTCHARHPLGSQHVSLSLSVHYSPKLLGPSCSWEAEGLHCSCSSQASPAPSLRWWLGEELLEGNSSQDSFEVTPSSAGPWANSSLSLHGGLSSGLRLRCEAWNVHGAQSGSILQLPDKKGLISTAFSN
modifications: here or on the partner: PE label
With B1 the binding was “binds”.
